# According to PubChem BioAssay AID1487 (National Center for Advancing Translational Sciences (NCATS), 2009):
# The other results are listed elsewhere or left out. These are further read-outs of the screen, such as a control signal, another cell line or another target. No call is given for them. Most of these compounds were active or inconclusive in the main read-out, so they are no random draw. Potencies come from curve fits of mixed quality, noted in brackets.
# Test: qHTS Assay for Modulators of Lamin A Splicing
# Conditions: HeLa LMNA splicing GFP/RFP minigene ratio, 48 h
# Method in brief: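 S3 HeLa stable clones carrying a lamin A-EGFP splicing minigene plus DsRed2 were seeded at 600 cells/well in Opti-MEM with 2% FBS, pin-dosed and incubated 48 h at 37°C. Acumen cytometry (488 nm) gave the GFP/RFP total-intensity ratio.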
# [1] = measured here: RFP viability control channel
# [2] = measured here: GFP splicing reporter channel
compound,measurement,setting,value
Cc1ccc(C(=O)c2sc3c(c2N)c(=O)[nH]c(=O)n3CCc2ccccc2)cc1,AC50,[1],"3.16 µM [rising, partial curve, poor fit]"
COc1cccc(/C=C/C(=O)NCc2cn3cc(Cl)ccc3n2)c1,AC50,[2],"35.5 µM [rising, single point]"
c1ccc2oc(-c3[nH]ncc3CN(Cc3ccncc3)CC3CCCO3)cc2c1 (configuration not stated),AC50,[2],"0.00891 µM [falling, partial curve, poor fit]"
same,AC50,[1],"0.0891 µM [falling, partial curve, poor fit]"
CCCn1c2ccccc2c2nc3ccccc3nc21,AC50,[1],"22.4 µM [rising, single point]"
COc1ccccc1/C=C/C(=O)OCC(=O)Nc1c(F)cccc1F,AC50,[2],"35.5 µM [rising, partial curve, poor fit]"
C(=N\N=C\c1ccccc1)/c1ccccc1,AC50,[1],"0.0794 µM [falling, single point]"
C=CCN1C(=O)/C(=C/c2ccc(O)cc2)S/C1=N/c1nccs1,AC50,[1],"14.1 µM [rising, single point]"
N#C/C(=C\C=C\c1ccccc1)C(=O)NCc1ccco1,AC50,[1],"17.8 µM [rising, single point]"
N#CC1=C(N2CCCCC2)c2cc3c(n2C1=O)CCCC3,AC50,[1],"0.891 µM [rising, full curve, poor fit]"
CC(C)(C)c1ccc(OC(=O)c2ccc3snnc3c2)cc1,AC50,[2],"0.0501 µM [falling, partial curve]"
OC(CN1CCN(c2ccccn2)CC1)Cn1c2ccccc2c2ccccc21 (configuration not stated),AC50,[1],"12.6 µM [rising, single point]"
CCc1ccc(OCC(=O)O/N=C(\N)Cc2ccc([N+](=O)[O-])cc2)cc1,AC50,[1],"35.5 µM [rising, single point]"
CC(C)C(=O)Nc1ccc(NC(=O)c2cccc(F)c2)cn1,AC50,[2],"8.91 µM [rising, partial curve, poor fit]"
Clc1nc(-c2cccnc2)nc2scc(-c3ccccc3)c12,AC50,[1],"6.31 µM [rising, partial curve]"
COc1ccc(-c2csc(NC3=NCCCCC3)n2)cc1,AC50,[1],"0.708 µM [rising, single point]"
CCN(CC)c1ccc(C2C3CCCCC3(O)CCN2CC(=O)N2CCCCC2)cc1 (configuration not stated),AC50,[2],"35.5 µM [rising, single point]"
same,AC50,[1],"35.5 µM [rising, single point]"
CCc1ccc(C2(O)CC(C(F)(F)F)=NN2C(=O)Cc2ccc([N+](=O)[O-])cc2)cc1 (configuration not stated),AC50,[1],"1 µM [rising, partial curve, poor fit]"
CCN(CC)S(=O)(=O)c1ccc(NN)nc1,AC50,[1],"0.0355 µM [falling, full curve, poor fit]"
Cc1ccc2cc(C)c3nnc(SCC(=O)c4cccs4)n3c2c1C,AC50,[2],"4.47 µM [rising, single point]"
same,AC50,[1],"4.47 µM [rising, partial curve, poor fit]"
N#CCSc1nnc(-c2ccccc2)c(-c2ccccc2)n1,AC50,[1],"31.6 µM [rising, single point]"
c1csc(CNc2nc(-c3ccoc3)nc3ccccc23)c1,AC50,[2],"10 µM [falling, partial curve, poor fit]"
O=C(Cc1ccccc1)N/N=C/c1cc2c(cc1Cl)OCO2,AC50,[2],"12.6 µM [rising, partial curve]"
same,AC50,[1],"15.8 µM [rising, partial curve]"
NNc1nc2c(Cl)c(Cl)ccc2s1,AC50,[1],"25.1 µM [rising, single point]"
O=C(O)/C=C\C(=O)Nc1ccccc1C#Cc1ccc(Br)cc1,AC50,[2],"35.5 µM [falling, single point]"
same,AC50,[1],"35.5 µM [falling, single point]"
O=C(NCc1cc(Br)cc(Br)c1OC(=O)c1ccccc1[N+](=O)[O-])c1ccccc1,AC50,[1],"35.5 µM [rising, single point]"
OCCCN1CCN(CCOc2ccccc2-c2ccccc2)CC1,AC50,[1],"0.562 µM [rising, full curve, poor fit]"
Cn1c(=O)n(C)c2cc(S(=O)(=O)Nc3cc(Cl)ccc3O)ccc21,AC50,[2],"11.2 µM [falling, partial curve, poor fit]"
same,AC50,[1],"15.8 µM [falling, partial curve]"
COC(=O)Cc1ccc(NC(=S)N2CCN(c3cccc(O)c3)CC2)cc1,AC50,[1],"12.6 µM [rising, single point]"
CCCn1c(=O)[nH]c(=O)c2c1nc(-c1ccc3c(c1)OCCO3)n2CCN1CCOCC1,AC50,[1],"11.2 µM [rising, single point]"
Cc1cc(C)cc(C(=O)OCC(=O)Nc2cccc(S(=O)(=O)NC3=NCCCCC3)c2)c1,AC50,[2],"14.1 µM [rising, single point]"
same,AC50,[1],"31.6 µM [rising, single point]"
CSC1=C(C#N)C(CC(C)C)C2=C(CCCC2=O)N1 (configuration not stated),AC50,[2],"17.8 µM [rising, partial curve]"
same,AC50,[1],"17.8 µM [rising, partial curve]"
CCn1c2c(c(=O)n3ncc(C(=O)Nc4cc(Cl)ccc4OC)c13)CN(Cc1ccc(OC)cc1)CC2,AC50,[1],"10 µM [falling, partial curve, poor fit]"
O=C(NCc1ccc(Cl)cc1)C1CCN(c2nn3cc(-c4ccc(F)cc4)nc3s2)CC1,AC50,[2],"2.82 µM [falling, partial curve]"
same,AC50,[1],"5.62 µM [falling, partial curve, poor fit]"
O=C(N/N=C/c1ccc(Cl)cc1)c1cc2c(s1)-c1ccccc1CC2,AC50,[1],"3.98 µM [rising, full curve]"
COc1ccc(S(=O)(=O)N2CCN(C(=O)c3c(C)nn(-c4ccccc4)c3Cl)CC2)cc1,AC50,[2],"4.47 µM [falling, partial curve]"
same,AC50,[1],"5.01 µM [falling, partial curve]"
COc1ccc(NC(=O)c2ccc([N+](=O)[O-])s2)c([N+](=O)[O-])c1,AC50,[1],"8.91 µM [rising, partial curve]"
Cc1ccc(S(=O)(=O)Nc2ccc3oc(=O)sc3c2)c(C)c1,AC50,[1],"10 µM [rising, partial curve, poor fit]"

# Exported with bars between the fields: part of the list above
compound | measurement | setting | value
N#CCSc1nnc(-c2ccccc2)c(-c2ccccc2)n1 | AC50 | [1] | 31.6 µM [rising, single point]
Cn1c(=O)n(C)c2cc(S(=O)(=O)Nc3cc(Cl)ccc3O)ccc21 | AC50 | [1] | 15.8 µM [falling, partial curve]
CCCn1c(=O)[nH]c(=O)c2c1nc(-c1ccc3c(c1)OCCO3)n2CCN1CCOCC1 | AC50 | [1] | 11.2 µM [rising, single point]
O=C(N/N=C/c1ccc(Cl)cc1)c1cc2c(s1)-c1ccccc1CC2 | AC50 | [1] | 3.98 µM [rising, full curve]
